The values below come from PMC6857912.

Sequences of proteins named here, by UniProt entry; tags and fusion partners are left off. A change or cut given only in a name is not applied to a line headed by its entry. Residues count along the entry.
UniProt E9Q8Q6: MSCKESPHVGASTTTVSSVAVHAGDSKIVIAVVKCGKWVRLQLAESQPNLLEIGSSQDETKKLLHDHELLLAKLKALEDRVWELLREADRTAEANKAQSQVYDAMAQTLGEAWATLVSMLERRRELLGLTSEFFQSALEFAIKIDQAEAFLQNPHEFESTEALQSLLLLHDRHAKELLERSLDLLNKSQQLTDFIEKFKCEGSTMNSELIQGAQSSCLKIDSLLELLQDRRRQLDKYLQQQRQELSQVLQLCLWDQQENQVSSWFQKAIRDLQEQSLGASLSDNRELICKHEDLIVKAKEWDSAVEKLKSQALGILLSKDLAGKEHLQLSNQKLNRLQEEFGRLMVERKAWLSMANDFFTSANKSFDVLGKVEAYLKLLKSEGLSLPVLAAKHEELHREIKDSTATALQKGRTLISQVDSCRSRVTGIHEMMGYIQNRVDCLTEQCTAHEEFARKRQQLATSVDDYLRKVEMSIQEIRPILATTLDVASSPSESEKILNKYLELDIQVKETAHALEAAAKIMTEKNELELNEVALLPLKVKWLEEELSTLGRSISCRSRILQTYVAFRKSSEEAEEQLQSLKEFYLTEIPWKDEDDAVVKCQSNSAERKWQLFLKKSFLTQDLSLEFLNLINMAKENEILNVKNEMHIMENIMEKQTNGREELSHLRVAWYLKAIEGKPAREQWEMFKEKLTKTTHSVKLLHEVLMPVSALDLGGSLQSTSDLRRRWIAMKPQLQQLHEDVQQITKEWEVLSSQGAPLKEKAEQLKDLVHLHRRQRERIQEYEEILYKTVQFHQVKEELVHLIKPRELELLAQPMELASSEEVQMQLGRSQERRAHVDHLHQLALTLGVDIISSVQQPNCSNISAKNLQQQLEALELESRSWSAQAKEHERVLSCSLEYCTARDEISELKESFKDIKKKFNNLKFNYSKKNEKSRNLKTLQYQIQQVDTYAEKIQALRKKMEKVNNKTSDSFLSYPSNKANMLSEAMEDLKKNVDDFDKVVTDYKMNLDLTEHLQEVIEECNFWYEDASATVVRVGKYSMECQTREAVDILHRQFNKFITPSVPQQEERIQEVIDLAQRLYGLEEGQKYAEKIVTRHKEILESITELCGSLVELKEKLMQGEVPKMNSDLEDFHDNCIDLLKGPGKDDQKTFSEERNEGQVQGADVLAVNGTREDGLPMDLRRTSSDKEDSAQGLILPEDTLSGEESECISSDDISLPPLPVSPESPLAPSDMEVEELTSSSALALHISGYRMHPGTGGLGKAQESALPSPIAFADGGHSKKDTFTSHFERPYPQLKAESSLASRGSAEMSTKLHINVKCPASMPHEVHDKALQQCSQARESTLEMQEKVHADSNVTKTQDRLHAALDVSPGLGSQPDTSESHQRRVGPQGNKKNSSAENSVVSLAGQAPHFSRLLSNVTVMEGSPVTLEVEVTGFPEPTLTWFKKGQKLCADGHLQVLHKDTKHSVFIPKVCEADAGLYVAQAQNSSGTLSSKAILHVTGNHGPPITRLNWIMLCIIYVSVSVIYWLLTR
UniProt Q5SXA9, residues 863-1104: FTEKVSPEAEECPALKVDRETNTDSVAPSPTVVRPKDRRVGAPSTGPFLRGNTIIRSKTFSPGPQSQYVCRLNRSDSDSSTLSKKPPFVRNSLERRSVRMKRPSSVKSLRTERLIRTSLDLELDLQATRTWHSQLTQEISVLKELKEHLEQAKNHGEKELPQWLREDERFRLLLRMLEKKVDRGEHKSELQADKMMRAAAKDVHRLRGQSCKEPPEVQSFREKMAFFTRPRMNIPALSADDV

Results are given in words; binding and its absence hold for the method and conditions named. Binding can be weak; no strength is given.

The target in this assay is CAMDI coiled-coil region (yeast two-hybrid bait) (mouse) (UniProt E9Q8Q6). The experiment in a line: two-hybrid; Matchmaker two-hybrid system kit (Clontech); screening of a mouse brain cDNA library with the CAMDI coiled-coil region as bait.

Regarding “KIBRA fragment containing a C-terminal coiled-coil region (863 to 1105 amino acids), two-hybrid prey (from UniProt Q5SXA9 863-1104) (domain or fragment)”, the binding result is listed as “binds”.
